Test results reported in publication PMC6393987.
Results are given in words; binding and its absence hold for the method and conditions named. Some results given as binding are weak or reduced against the parent protein; the word gives no strength. Tags and fused reporters may be left off the sequences shown.

T1: PB1 domain of NLP7 (GBD and AD fusion constructs of Fig. 1c) (Arabidopsis) (UniProt Q84TH9)
T1 sequence: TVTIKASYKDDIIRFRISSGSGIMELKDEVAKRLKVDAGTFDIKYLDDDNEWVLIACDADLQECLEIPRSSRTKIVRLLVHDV


Legend:
[1] = target: NLP7 (116–959) containing mutations in the PB1 domain (K867, D909, D911 and E913 replaced with alanine), carboxy-terminal GBD fusion (Arabidopsis) (UniProt Q84TH9); test: two-hybrid; Y2H assay in yeast; PB1 domain of NLP7 (853–949) fused to AD as prey, NLP7 forms fused to carboxy-terminal GBD as bait
[2] = target: NLP7 lacking the amino terminus (amino acids 116–959), carboxy-terminal Gal4 DNA-binding domain fusion (Arabidopsis) (UniProt Q84TH9); test: as above
[3] = target: PB1 domain of NLP6 (GBD and AD fusion constructs of Fig. 1c) (Arabidopsis) (UniProt Q8RWY4); test: two-hybrid; Y2H between PB1 domains as GBD (pGBT9) and AD (pGADT7) fusions; growth assay in S. cerevisiae AH109 on SD lacking Trp, Leu, His, Ade and colony-lift β-galactosidase assay in Y187
[4] = target: T1, PB1 domain of NLP7 (GBD and AD fusion constructs of Fig. 1c) (Arabidopsis); test: as above

binding [1] | binding [2] | binding [3] | binding [4] | Binder
no binding | binds | – | – | PB1 domain of NLP7 (residues 853–949), Gal4 transactivation domain fusion (prey) (domain or fragment, UniProt Q84TH9 853-949) ACEPSGSEMRTVTIKASYKDDIIRFRISSGSGIMELKDEVAKRLKVDAGTFDIKYLDDDNEWVLIACDADLQECLEIPRSSRTKIVRLLVHDVTTNL
– | – | no binding | no binding | PB1 domain of NLP6 (GBD and AD fusion constructs of Fig. 1c) (domain or fragment, UniProt Q8RWY4 741-823) LVSIKATYREDIIRFKISPESVSITELKQQVAKRLKLETAAFELKYLDDDREWVSVSCDADLSECLDTSAAKANTLRLSVHDV
